Results are given in words; binding and its absence hold for the method and conditions named. Binding seen in cells or lysates may run through a third protein. Here binding means that the protein was enriched with, or labelled near, the bait; the list need not be complete.

The chains behind the UniProt entries cited, without tags or fusion partners.
UniProt P17426: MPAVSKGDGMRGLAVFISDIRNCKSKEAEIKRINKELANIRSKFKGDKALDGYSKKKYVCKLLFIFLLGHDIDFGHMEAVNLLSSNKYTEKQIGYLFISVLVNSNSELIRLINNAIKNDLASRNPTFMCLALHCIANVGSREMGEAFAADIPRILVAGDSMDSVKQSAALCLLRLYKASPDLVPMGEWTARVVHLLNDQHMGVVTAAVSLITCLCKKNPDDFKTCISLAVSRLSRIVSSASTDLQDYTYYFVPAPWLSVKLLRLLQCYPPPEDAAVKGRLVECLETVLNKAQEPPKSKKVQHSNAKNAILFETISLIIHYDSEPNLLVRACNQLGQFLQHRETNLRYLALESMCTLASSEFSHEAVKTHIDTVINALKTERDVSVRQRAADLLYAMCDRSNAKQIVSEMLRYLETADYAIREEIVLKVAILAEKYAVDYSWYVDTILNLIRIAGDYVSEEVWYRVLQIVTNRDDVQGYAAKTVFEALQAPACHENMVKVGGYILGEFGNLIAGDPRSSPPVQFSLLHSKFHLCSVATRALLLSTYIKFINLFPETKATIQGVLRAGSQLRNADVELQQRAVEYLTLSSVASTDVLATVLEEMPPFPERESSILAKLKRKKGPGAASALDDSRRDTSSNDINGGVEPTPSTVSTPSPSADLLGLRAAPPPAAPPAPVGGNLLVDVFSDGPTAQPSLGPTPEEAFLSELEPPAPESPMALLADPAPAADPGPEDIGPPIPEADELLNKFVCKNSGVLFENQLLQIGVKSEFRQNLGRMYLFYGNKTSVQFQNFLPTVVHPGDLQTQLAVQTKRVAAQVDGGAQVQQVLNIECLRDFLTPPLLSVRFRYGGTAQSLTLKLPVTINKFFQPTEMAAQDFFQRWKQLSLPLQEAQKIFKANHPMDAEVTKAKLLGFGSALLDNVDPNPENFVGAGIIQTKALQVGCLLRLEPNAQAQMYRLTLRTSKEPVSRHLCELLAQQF
UniProt P17427: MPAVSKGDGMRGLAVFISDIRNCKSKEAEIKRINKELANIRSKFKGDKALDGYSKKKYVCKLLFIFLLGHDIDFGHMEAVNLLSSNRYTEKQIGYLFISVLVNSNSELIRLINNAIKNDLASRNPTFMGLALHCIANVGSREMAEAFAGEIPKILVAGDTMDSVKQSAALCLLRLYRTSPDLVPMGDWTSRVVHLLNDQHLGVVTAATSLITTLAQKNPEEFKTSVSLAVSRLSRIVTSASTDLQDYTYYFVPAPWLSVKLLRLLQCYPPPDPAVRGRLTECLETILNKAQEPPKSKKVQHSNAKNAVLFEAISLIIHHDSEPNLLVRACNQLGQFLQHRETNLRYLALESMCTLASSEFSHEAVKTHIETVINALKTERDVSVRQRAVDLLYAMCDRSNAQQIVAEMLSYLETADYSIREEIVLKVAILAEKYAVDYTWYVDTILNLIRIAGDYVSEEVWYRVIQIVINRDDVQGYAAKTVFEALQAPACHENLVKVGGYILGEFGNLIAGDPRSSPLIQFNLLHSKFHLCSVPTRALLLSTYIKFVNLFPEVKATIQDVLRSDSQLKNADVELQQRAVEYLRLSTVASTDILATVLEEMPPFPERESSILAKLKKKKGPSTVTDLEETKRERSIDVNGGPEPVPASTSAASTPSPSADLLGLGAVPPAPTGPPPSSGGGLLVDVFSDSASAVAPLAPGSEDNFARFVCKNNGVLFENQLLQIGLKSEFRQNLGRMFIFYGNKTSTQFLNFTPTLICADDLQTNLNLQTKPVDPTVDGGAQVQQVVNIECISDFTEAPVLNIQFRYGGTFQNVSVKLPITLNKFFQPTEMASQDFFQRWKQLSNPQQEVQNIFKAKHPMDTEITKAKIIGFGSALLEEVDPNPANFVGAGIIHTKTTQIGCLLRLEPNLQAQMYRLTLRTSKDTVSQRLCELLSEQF
UniProt Q9QWY8: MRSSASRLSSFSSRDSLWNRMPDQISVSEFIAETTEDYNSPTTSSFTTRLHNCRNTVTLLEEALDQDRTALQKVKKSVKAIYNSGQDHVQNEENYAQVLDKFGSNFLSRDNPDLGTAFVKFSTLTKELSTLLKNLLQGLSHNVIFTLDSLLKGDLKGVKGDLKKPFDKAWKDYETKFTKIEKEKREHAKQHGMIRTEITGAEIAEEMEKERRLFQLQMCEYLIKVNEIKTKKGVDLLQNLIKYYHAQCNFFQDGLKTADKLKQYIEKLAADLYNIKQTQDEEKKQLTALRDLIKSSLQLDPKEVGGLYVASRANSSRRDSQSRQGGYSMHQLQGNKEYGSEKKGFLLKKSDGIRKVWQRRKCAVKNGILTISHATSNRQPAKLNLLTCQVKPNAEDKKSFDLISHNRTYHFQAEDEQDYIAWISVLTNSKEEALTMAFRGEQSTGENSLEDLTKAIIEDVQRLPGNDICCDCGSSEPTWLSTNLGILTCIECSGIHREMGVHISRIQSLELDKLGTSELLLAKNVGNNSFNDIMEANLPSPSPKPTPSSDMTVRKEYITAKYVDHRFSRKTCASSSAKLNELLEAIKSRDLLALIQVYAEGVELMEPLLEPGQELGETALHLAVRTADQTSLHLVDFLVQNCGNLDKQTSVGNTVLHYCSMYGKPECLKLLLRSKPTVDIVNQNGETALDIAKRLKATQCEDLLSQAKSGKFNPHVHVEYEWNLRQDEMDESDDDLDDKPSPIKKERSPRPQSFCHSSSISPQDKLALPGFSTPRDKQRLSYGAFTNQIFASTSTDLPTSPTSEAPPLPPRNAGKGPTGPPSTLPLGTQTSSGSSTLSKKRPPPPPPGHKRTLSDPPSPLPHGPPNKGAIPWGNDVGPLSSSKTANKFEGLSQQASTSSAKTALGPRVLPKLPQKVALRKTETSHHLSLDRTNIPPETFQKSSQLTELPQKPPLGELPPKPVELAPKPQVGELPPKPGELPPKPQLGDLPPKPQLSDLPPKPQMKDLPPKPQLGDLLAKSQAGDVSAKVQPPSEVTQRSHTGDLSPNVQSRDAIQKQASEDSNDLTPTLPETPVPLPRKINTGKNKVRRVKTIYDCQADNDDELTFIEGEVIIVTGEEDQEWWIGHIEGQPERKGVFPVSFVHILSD
UniProt Q9Z0R4: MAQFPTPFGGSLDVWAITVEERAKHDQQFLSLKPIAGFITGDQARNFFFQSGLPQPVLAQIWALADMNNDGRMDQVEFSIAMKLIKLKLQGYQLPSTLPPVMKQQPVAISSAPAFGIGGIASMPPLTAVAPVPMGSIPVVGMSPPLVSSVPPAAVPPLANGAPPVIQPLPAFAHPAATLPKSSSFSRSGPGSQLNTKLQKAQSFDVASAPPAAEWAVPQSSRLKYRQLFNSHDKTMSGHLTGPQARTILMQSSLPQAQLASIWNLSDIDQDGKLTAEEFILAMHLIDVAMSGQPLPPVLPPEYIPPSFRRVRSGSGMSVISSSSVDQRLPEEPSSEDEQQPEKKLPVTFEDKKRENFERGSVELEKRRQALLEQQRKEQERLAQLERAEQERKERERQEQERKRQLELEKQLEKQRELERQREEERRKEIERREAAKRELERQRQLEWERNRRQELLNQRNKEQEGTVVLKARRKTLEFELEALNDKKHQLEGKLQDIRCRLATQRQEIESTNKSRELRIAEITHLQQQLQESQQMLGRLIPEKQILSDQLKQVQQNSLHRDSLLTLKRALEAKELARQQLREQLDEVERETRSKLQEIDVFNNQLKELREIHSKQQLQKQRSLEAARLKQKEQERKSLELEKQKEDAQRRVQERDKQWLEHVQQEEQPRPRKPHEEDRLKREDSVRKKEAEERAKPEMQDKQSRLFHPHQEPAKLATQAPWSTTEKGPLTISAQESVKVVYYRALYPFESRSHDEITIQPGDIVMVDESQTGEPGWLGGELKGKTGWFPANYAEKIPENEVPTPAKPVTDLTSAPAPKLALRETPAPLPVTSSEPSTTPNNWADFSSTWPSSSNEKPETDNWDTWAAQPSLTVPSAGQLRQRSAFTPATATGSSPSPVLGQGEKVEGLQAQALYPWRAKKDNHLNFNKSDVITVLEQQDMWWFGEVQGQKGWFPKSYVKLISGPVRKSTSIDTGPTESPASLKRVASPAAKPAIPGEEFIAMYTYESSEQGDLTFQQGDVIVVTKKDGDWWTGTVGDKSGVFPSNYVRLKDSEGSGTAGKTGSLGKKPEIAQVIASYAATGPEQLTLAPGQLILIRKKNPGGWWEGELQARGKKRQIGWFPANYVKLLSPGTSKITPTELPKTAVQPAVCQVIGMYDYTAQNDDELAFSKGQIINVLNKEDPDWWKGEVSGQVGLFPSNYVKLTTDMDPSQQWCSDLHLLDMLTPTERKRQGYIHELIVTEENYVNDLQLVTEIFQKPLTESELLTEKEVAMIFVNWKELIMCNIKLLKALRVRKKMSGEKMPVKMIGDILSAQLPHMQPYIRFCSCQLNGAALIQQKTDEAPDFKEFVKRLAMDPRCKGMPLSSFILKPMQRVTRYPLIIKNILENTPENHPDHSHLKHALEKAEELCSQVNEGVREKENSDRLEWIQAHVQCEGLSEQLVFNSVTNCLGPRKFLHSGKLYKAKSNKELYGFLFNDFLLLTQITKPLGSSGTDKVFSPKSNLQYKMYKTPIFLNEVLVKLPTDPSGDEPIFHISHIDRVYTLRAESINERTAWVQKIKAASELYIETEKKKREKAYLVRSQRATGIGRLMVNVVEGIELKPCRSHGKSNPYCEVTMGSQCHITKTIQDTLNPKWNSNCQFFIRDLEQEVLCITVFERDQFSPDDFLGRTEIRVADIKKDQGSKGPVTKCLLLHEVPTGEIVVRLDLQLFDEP

From article PMC6684583 come the findings set out here.

The chains are these.
T1: AIDA-1 (APP intracellular domain associated 1), encoded by Anks1b (mouse (endogenous in mouse brain)) (UniProt Q8BIZ1)
T1 sequence: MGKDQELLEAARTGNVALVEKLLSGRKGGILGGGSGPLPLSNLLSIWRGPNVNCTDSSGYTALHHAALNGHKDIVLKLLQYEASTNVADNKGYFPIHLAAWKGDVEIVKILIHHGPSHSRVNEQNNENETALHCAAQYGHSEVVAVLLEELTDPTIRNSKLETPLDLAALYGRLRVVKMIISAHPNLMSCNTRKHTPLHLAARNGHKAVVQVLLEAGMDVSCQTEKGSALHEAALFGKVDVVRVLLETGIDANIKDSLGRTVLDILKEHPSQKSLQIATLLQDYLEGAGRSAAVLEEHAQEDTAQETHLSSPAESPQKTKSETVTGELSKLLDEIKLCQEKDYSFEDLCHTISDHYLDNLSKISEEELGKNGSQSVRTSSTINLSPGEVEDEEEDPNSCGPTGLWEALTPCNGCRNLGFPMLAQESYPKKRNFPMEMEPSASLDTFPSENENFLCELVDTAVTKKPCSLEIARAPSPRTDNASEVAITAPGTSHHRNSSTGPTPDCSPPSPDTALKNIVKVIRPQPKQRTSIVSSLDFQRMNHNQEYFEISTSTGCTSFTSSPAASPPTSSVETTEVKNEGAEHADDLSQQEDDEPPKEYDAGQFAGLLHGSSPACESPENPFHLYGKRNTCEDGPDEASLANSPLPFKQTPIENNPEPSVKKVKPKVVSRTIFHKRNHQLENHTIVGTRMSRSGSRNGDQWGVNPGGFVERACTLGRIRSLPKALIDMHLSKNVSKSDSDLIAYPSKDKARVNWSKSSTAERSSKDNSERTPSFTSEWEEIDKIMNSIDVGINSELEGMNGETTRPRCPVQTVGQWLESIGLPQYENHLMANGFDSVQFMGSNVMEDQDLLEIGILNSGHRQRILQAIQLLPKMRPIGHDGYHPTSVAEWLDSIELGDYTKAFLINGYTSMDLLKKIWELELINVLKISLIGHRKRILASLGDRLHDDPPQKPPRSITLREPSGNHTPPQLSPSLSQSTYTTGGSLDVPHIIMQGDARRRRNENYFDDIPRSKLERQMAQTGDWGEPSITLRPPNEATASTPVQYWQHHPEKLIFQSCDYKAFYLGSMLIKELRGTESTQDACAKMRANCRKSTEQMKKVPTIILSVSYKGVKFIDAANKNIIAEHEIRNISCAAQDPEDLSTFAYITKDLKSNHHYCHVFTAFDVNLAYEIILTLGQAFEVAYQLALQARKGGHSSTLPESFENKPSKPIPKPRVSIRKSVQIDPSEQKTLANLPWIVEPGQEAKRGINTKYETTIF

B1: Git1 (protein, UniProt Q68FF6 1-770)
chain: MSRKGPRAEVCADCSAPDPGWASISRGVLVCDECCSVHRSLGRHISIVKHLRHSAWPPTLLQMVHTLASNGANSIWEHSLLDPAQVQSGRRKANPQDKVHPIKSEFIRAKYQMLAFVHKLPCRDDDGVTAKDLSKQLHSSVRTGNLETCLRLLSLGAQANFFHPEKGTTPLHVAAKAGQTLQAELLVVYGADPGSPDVNGRTPIDYARQAGHHELAERLVECQYELTDRLAFYLCGRKPDHKNGHYIIPQMADRSRQKCMSQSLDLSELAKAAKKKLQALSNRLFEELAMDVYDEVDRRENDAVWLATQNHSTLVTERSAVPFLPVNPEYSATRNQGRQKLARFNAREFATLIIDILSEAKRRQQGKSLSSPTDNLELSARSQSELDDQHDYDSVASDEDTDQEPLPSAGATRNNRARSMDSSDLSDGAVTLQEYLELKKALATSEAKVQQLMKVNSSLSDELRRLQREIHKLQAENLQLRQPPGPVPPPSLPSERAEHTLMGPGGSTHRRDRQAFSMYEPGSALKPFGGTPGDELATRLQPFHSTELEDDAIYSVHVPAGLYRIRKGVSASSVPFTPSSPLLSCSQEGSRHASKLSRHGSGADSDYENTQSGDPLLGLEGKRFLELSKEDELHPELESLDGDLDPGLPSTEDVILKTEQVTKNIQELLRAAQEFKHDSFVPCSEKIHLAVTEMASLFPKRPALEPVRSSLRLLNASAYRLQSECRKTVPPEPGAPVDFQLLTQQVIQCAYDIAKAAKQLVTITTREKKQ

The test addresses T1, AIDA-1 (APP intracellular domain associated 1), encoded by Anks1b (mouse (endogenous in mouse brain)). In words: affinity purification with mass spectrometry; AIDA-1 antibodies (C-10, 2B22 or Mix of C-10 + 1A11 + 2B22) crosslinked to protein G agarose or magnetic beads; 5 mg whole mouse brain lysate in DBM buffer and in RIPA buffer, eluates pooled; 10-plex TMT labelling; enrichment over mouse IgG control (>1.4-fold agarose, >3.0-fold magnetic, at least 3 peptides).
In the case of Ap2a1 (from UniProt P17426 1-977), the binding result is “binds”.
In the case of Ap2a2 (from UniProt P17427 1-938), the binding result is reported as “binds”.
The same measure for Asap1 (from UniProt Q9QWY8 1-1147): “binds”; for Itsn1 (from UniProt Q9Z0R4 1-1714): “binds”; for Srgap2 (from UniProt Q91Z67 1-1071): “binds”.
For SynGAP1 (from UniProt F6SEU4 1-1340), the binding entry is “binds”.
On to B1, for which the binding result is “binds”.
